# This is one part of the list.
# B1: Nc3LysM-2 (protein)
# chain: AHVLQARQSVSCDFATAANTGDTCASFAAAWGITEAAFAKLNPGVSCPGNLIAGSEYCVIGTVSTGAPTTTKAATTSTTPPTTTTTTKATTLSTSTTSVSPTGPSPQMPSITSTCNKFYQVQSGDGCWSIEQAQGVSASDFMAWNKAVDAQCDNLWLGYYVCVGVKGGSSPPPTTTTKPASSSAPTPQMPNTVSNCKKFHKVVSGDGCWAIEQAAGISASDFAKWNPYVDAACDNLWLGYYVCIGV
# Key:
# Test in all cases: glycan array binding signal (z-score within array); higher = stronger binding
# Details in all cases: glycan notation: IUPAC condensed, linker removed
# [1] = biological target: Neu5Ac(a2-3)Gal(b1-3)]Neu5Ac(a2-3)Gal(b1-4)]GlcNAc
# In short: (§1)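 The Consortium for Functional Glycomics database supplied 3228 glycan arrays, of which those lacking an available protein sequence were dropped. The binding signal, a within-array Z-score, was averaged across arrays of the same protein sequence and across linkers. Negative scores can be read as non-binding.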
# Neu5Ac(a2-3)Gal(b1-4)Glc = biological target: Neu5Ac(a2-3)Gal(b1-4)Glc
# In short: as §1
# [2] = biological target: Neu5Ac(a2-3)Gal(b1-4)GlcNAc
# In short: as §1
# [3] = biological target: Neu5Ac(a2-3)Gal(b1-4)GlcNAc(b1-2)Man
# In short: as §1
# [4] = biological target: Neu5Ac(a2-3)Gal(b1-4)GlcNAc(b1-2)Man(a1-3)[GlcNAc(b1-4)][Neu5Ac(a2-3)Gal(b1-4)GlcNAc(b1-2)Man(a1-6)]Man(b1-4)GlcNAc(b1-4)GlcNAc
# In short: as §1
# [5] = biological target: Neu5Ac(a2-3)Gal(b1-4)GlcNAc(b1-2)Man(a1-3)[Neu5Ac(a2-3)Gal(b1-4)GlcNAc(b1-2)Man(a1-6)]Man(b1-4)GlcNAc(b1-4)GlcNAc
# In short: as §1
# [6] = biological target: Neu5Ac(a2-3)Gal(b1-4)GlcNAc(b1-2)Man(a1-3)[Neu5Ac(a2-3)Gal(b1-4)GlcNAc(b1-2)Man(a1-6)]Man(b1-4)GlcNAc(b1-4)[Fuc(a1-6)]GlcNAc
# In short: as §1
# [7] = biological target: Neu5Ac(a2-3)Gal(b1-4)GlcNAc(b1-2)Man(a1-3)[Neu5Ac(a2-6)Gal(b1-4)GlcNAc(b1-2)Man(a1-6)]Man(b1-4)GlcNAc(b1-4)GlcNAc
# In short: as §1
# [8] = biological target: Neu5Ac(a2-3)Gal(b1-4)GlcNAc(b1-2)[Neu5Ac(a2-3)Gal(b1-4)GlcNAc(b1-4)]Man(a1-3)[GlcNAc(b1-4)][Neu5Ac(a2-3)Gal(b1-4)GlcNAc(b1-2)[Neu5Ac(a2-3)Gal(b1-4)GlcNAc(b1-6)]Man(a1-6)]Man(b1-4)GlcNAc(b1-4)GlcNAc
# In short: as §1
# [9] = biological target: Neu5Ac(a2-3)Gal(b1-4)GlcNAc(b1-2)[Neu5Ac(a2-3)Gal(b1-4)GlcNAc(b1-4)]Man(a1-3)[GlcNAc(b1-4)][Neu5Ac(a2-3)Gal(b1-4)GlcNAc(b1-4)Man(a1-6)]Man(b1-4)GlcNAc(b1-4)GlcNAc
# In short: as §1
# [10] = biological target: Neu5Ac(a2-3)Gal(b1-4)GlcNAc(b1-2)[Neu5Ac(a2-3)Gal(b1-4)GlcNAc(b1-6)]Man(a1-6)[Neu5Ac(a2-3)Gal(b1-4)GlcNAc(b1-2)Man(a1-3)][GlcNAc(b1-4)]Man(b1-4)GlcNAc(b1-4)GlcNAc
# In short: as §1
# [11] = biological target: Neu5Ac(a2-3)Gal(b1-4)GlcNAc(b1-3)Gal
# In short: as §1
# [12] = biological target: Neu5Ac(a2-3)Gal(b1-4)GlcNAc(b1-3)Gal(b1-3)GlcNAc
# In short: as §1
# [13] = biological target: Neu5Ac(a2-3)Gal(b1-4)GlcNAc(b1-3)Gal(b1-4)GlcNAc
# In short: as §1
# [14] = biological target: Neu5Ac(a2-3)Gal(b1-4)GlcNAc(b1-3)Gal(b1-4)GlcNAc(b1-2)Man(a1-3)[Neu5Ac(a2-3)Gal(b1-4)GlcNAc(b1-3)Gal(b1-4)GlcNAc(b1-2)Man(a1-6)]Man(b1-4)GlcNAc(b1-4)GlcNAc
# In short: as §1
# [15] = biological target: Neu5Ac(a2-3)Gal(b1-4)GlcNAc(b1-3)Gal(b1-4)GlcNAc(b1-3)Gal(b1-4)GlcNAc
# In short: as §1
# [16] = biological target: Neu5Ac(a2-3)Gal(b1-4)GlcNAc(b1-3)Gal(b1-4)GlcNAc(b1-3)Gal(b1-4)GlcNAc(b1-2)Man(a1-3)[Neu5Ac(a2-3)Gal(b1-4)GlcNAc(b1-3)Gal(b1-4)GlcNAc(b1-3)Gal(b1-4)GlcNAc(b1-2)Man(a1-6)]GalNAc
# In short: as §1
# [17] = biological target: Neu5Ac(a2-3)Gal(b1-4)GlcNAc(b1-3)Gal(b1-4)GlcNAc(b1-3)GalNAc
# In short: as §1
# [18] = biological target: Neu5Ac(a2-3)Gal(b1-4)GlcNAc(b1-3)Gal(b1-4)GlcNAc(b1-3)[Neu5Ac(a2-3)Gal(b1-4)GlcNAc(b1-3)Gal(b1-4)GlcNAc(b1-6)]GalNAc
# In short: as §1
# [19] = biological target: Neu5Ac(a2-3)Gal(b1-4)GlcNAc(b1-3)Gal(b1-4)GlcNAc(b1-6)[Gal(b1-3)]GalNAc
# In short: as §1
# [20] = biological target: Neu5Ac(a2-3)Gal(b1-4)GlcNAc(b1-3)Gal(b1-4)[Fuc(a1-3)]GlcNAc
# In short: as §1
# [21] = biological target: Neu5Ac(a2-3)Gal(b1-4)GlcNAc(b1-3)GalNAc
# In short: as §1
# [22] = biological target: Neu5Ac(a2-3)Gal(b1-4)GlcNAc(b1-3)[Neu5Ac(a2-3)Gal(b1-4)GlcNAc(b1-6)]GalNAc
# In short: as §1
# [23] = biological target: Neu5Ac(a2-3)Gal(b1-4)GlcNAc(b1-6)GalNAc
# In short: as §1
# [24] = biological target: Neu5Ac(a2-3)Gal(b1-4)GlcNAc(b1-6)[Gal(b1-3)]GalNAc
# In short: as §1
# [25] = biological target: Neu5Ac(a2-3)Gal(b1-4)GlcNAc(b1-6)[Neu5Ac(a2-3)Gal(b1-3)]GalNAc
# In short: as §1
# [26] = biological target: Neu5Ac(a2-3)Gal(b1-4)GlcNAc6S
# In short: as §1
# [27] = biological target: Neu5Ac(a2-3)Gal(b1-4)[Fuc(a1-3)]GlcNAc
# In short: as §1
# [28] = biological target: Neu5Ac(a2-3)Gal(b1-4)[Fuc(a1-3)]GlcNAc(b1-2)Man
# In short: as §1
# [29] = biological target: Neu5Ac(a2-3)Gal(b1-4)[Fuc(a1-3)]GlcNAc(b1-3)Gal
# In short: as §1
# [30] = biological target: Neu5Ac(a2-3)Gal(b1-4)[Fuc(a1-3)]GlcNAc(b1-3)Gal(b1-4)GlcNAc
# In short: as §1
# [31] = biological target: Neu5Ac(a2-3)Gal(b1-4)[Fuc(a1-3)]GlcNAc(b1-3)Gal(b1-4)[Fuc(a1-3)]GlcNAc(b1-3)Gal(b1-4)[Fuc(a1-3)]GlcNAc
# In short: as §1
# [32] = biological target: Neu5Ac(a2-3)Gal(b1-4)[Fuc(a1-3)]GlcNAc(b1-3)GalNAc
# In short: as §1
# [33] = biological target: Neu5Ac(a2-3)Gal(b1-4)[Fuc(a1-3)]GlcNAc(b1-6)[Gal(b1-3)]GalNAc
# In short: as §1
# [34] = biological target: Neu5Ac(a2-3)Gal(b1-4)[Fuc(a1-3)]GlcNAc(b1-6)[Neu5Ac(a2-3)Gal(b1-3)]GalNAc
# In short: as §1
# [35] = biological target: Neu5Ac(a2-3)Gal(b1-4)[Fuc(a1-3)]GlcNAc6S
# In short: as §1
# [36] = biological target: Neu5Ac(a2-3)Gal6S(b1-4)GlcNAc
# In short: as §1
# [37] = biological target: Neu5Ac(a2-3)Gal6S(b1-4)[Fuc(a1-3)]GlcNAc
# In short: as §1
binder,measurement,setting,value
B1,glycan array binding signal (z-score),[1],-0.285
same,glycan array binding signal (z-score),Neu5Ac(a2-3)Gal(b1-4)Glc,-0.245
same,glycan array binding signal (z-score),[2],-0.62
same,glycan array binding signal (z-score),[3],0.06
same,glycan array binding signal (z-score),[4],0.63
same,glycan array binding signal (z-score),[5],1.03
same,glycan array binding signal (z-score),[6],-0.943
same,glycan array binding signal (z-score),[7],-0.348
same,glycan array binding signal (z-score),[8],1.16
same,glycan array binding signal (z-score),[9],-0.254
same,glycan array binding signal (z-score),[10],-0.022
same,glycan array binding signal (z-score),[11],0.058
same,glycan array binding signal (z-score),[12],1.52
same,glycan array binding signal (z-score),[13],0.339
same,glycan array binding signal (z-score),[14],4.26
same,glycan array binding signal (z-score),[15],1.13
same,glycan array binding signal (z-score),[16],0.871
same,glycan array binding signal (z-score),[17],0.004
same,glycan array binding signal (z-score),[18],-0.674
same,glycan array binding signal (z-score),[19],0.042
same,glycan array binding signal (z-score),[20],-0.71
same,glycan array binding signal (z-score),[21],-0.611
same,glycan array binding signal (z-score),[22],0.138
same,glycan array binding signal (z-score),[23],0.862
same,glycan array binding signal (z-score),[24],1.15
same,glycan array binding signal (z-score),[25],-1.04
same,glycan array binding signal (z-score),[26],1
same,glycan array binding signal (z-score),[27],-0.717
same,glycan array binding signal (z-score),[28],-0.075
same,glycan array binding signal (z-score),[29],0.87
same,glycan array binding signal (z-score),[30],-0.195
same,glycan array binding signal (z-score),[31],0.917
same,glycan array binding signal (z-score),[32],1.6
same,glycan array binding signal (z-score),[33],1.18
same,glycan array binding signal (z-score),[34],2.08
same,glycan array binding signal (z-score),[35],-0.938
same,glycan array binding signal (z-score),[36],-0.155
same,glycan array binding signal (z-score),[37],-0.852

# An excerpt of these results, tab-delimited:
binder	measurement	setting	value
B1	glycan array binding signal (z-score)	[31]	0.917
same	glycan array binding signal (z-score)	[32]	1.6
